## Primary screen of a compound library

Measurements from “University of Dundee, Small-Polar-MMV Screening Library” (2021), ChEMBL document CHEMBL3988442.

Results are given as percent effect. The record does not define 0% and 100%; most values in the screen are far below 50% and negative numbers occur (in some assays of this library far below -100). This is an unselected part of the compounds tested. Two or more numbers in one place are separate tests of the same structure; such repeats can differ widely.

A: 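Phenotypic screen: M. tuberculosis growth, cholesterol and DPPC medium, 4 days; the read-out is not stated. Tested at 50 µM. Direction is inferred from retests: higher values go with more growth inhibition. About 69,000 compounds were tested under these conditions; 0.54% (about 370) showed 50% or more at least once.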
B: 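Phenotypic screen: M. tuberculosis growth, glucose 7H9 medium, 3 days; the read-out is not stated. Concentration: 50 µM. Higher reads as more growth inhibition (inferred: compounds with an IC50 in retests scored well above the rest). Size under these conditions: about 69,000 compounds, about 760 of them at 50% or above in at least one test.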

{"compound": "CCn1c(CC2CCN(S(=O)(=O)Cc3ccccc3)CC2)nn(C)c1=O", "A": -10.4, "B": -25.18}
{"compound": "O=C(O)CCN(Cc1ccc(F)c(F)c1)C(=O)C1CC1", "A": 4.026, "B": 25.7}
{"compound": "COc1cn(CC(N)=O)c(CSc2nccc(C)n2)cc1=O", "A": -0.717, "B": -50.02}
{"compound": "CCN(Cc1cnn(C)c1)C[C@H]1CC[C@@H](Cc2cccc(C#N)c2)O1", "A": -6.09, "B": -5.356}
{"compound": "O=C(O)C(F)(F)F.[H][C@@]12CCN(S(=O)(=O)c3ccc(F)cc3)C[C@]1([H])[C@@H](CN(C)C)OC2", "A": -5.814, "B": 26.41}
{"compound": "CCNc1cc2c(nn1)CCN(C(=O)c1ccoc1)C2", "A": -6.713, "B": 12.09}
{"compound": "O=C(NCC1CCCO1)c1cc(COc2ccccc2F)[nH]n1", "stereo": "centres unmarked", "A": -0.4809, "B": -27.32}
{"compound": "Cc1cccc(N2N=C(C(=O)NC(C)CCc3ccco3)CCC2=O)c1", "stereo": "centres unmarked", "A": -24.53, "B": 19.89}
{"compound": "CCN(C)c1ncnc2c1CCN(C(=O)Cc1ccccn1)CC2.O=C(O)C(F)(F)F", "A": -18.95, "B": 12.16}
{"compound": "O=C(NCc1cccnc1OCC(F)(F)F)N1CCOCC1", "A": -13.74, "B": "-37.1 & -4.027"}
{"compound": "FC(F)(F)c1ccnc(N2CCCC(N3CCOCC3)C2)c1", "stereo": "centres unmarked", "A": -27.34, "B": -20.21}
{"compound": "Cc1ccc(CNC(=O)C2CCN(C(=O)C(C)C)CC2)n1C", "A": -14.16, "B": -16.62}
{"compound": "O=C(NC1CCN(C(=O)C2CCCCC2)C1)c1ccncc1Cl", "stereo": "centres unmarked", "A": -3.568, "B": 5.646}
{"compound": "Cc1nn(CCO)cc1CN1CCC(N2CCC(O)CC2)CC1", "A": -4.161, "B": "-5.866 & 2.8"}
{"compound": "CCNC(=O)N(C)CCCc1n[nH]c(N)c1C#N", "A": -3.448, "B": 20.11}
{"compound": "c1cnnc(N2CCCC(NCc3ccc(-n4cncn4)cc3)C2)c1", "stereo": "centres unmarked", "A": 20.13, "B": -6.234}
{"compound": "Cc1nccn1Cc1cccc(CNC(=O)c2ccn(C)c(=O)c2)c1", "A": -15.81, "B": -11.83}
{"compound": "CC(C)CCC1=NC2(CCN(C(=O)CN3CCCC3=O)CC2)C(=O)N1", "A": "-5.483 & -6.703", "B": -10.22}
{"compound": "CC(C)n1cc(CN2CCCN(C(=O)c3cc(Cl)c[nH]3)CC2)cn1", "A": 12, "B": 29.88}
{"compound": "Cn1ncnc1NS(=O)(=O)c1ccc(F)cc1Cl", "A": 10.48, "B": 5.936}
{"compound": "Cc1cc(CNC(=O)N2CCc3ccccc3C2CO)c(C)o1", "stereo": "centres unmarked", "A": 10.2, "B": 14.39}
{"compound": "O=C(NCc1ccc(OCC2CC2)nc1)c1c(F)cccc1F", "A": -25.25, "B": "-6.43 & -8.86"}
{"compound": "O=C(Nc1nccs1)NC1CCN(Cc2ccccn2)CC1", "A": -19.74, "B": -16.62}
{"compound": "CCc1ccc(OCC(O)CN2CCC(O)CC2)cc1", "stereo": "centres unmarked", "A": -10.6, "B": -9.356}
{"compound": "COCCNC(=O)c1ccc2ccc(N(C)CC3CC3)n2c1", "A": "-0.3189 & -8.826", "B": -8.624}
{"compound": "Cc1ncc(C(=O)N2C[C@H](CO)C[C@H](CN3CCOCC3)C2)c(=O)[nH]1", "A": -5.704, "B": "4.235 & 14.76"}
{"compound": "CCC(C)Oc1cc(C(=O)N(c2cccnc2)C(C)C)ccn1", "stereo": "centres unmarked", "A": -3.031, "B": "-6.034 & -0.6245"}
{"compound": "Cc1ccn(-c2ccccc2NCc2ncc[nH]2)n1", "A": 3.995, "B": "46.56 & 14.52"}
{"compound": "O=C(NCc1ccc(CN2CCCC2)cc1)NC1(CO)CCCC1", "A": 0.1597, "B": 11.11}
{"compound": "CC[C@@H]1N(Cc2cccnc2)CCC[C@]12CCC(=O)N2C.O=C(O)C(F)(F)F.O=C(O)C(F)(F)F", "A": "-5.158 & -9.561", "B": 9.645}
{"compound": "Cc1cc(C)n(C2CN(CC(=O)NC3CCS(=O)(=O)C3)C2)n1", "stereo": "centres unmarked", "A": -9.753, "B": 17.31}
{"compound": "Cc1ccc(C(=O)N(C)Cc2cc(Br)cs2)cn1", "A": -19.12, "B": -2.29}
{"compound": "Cn1cccc(NC(=O)N2CCC(CSc3ccccc3)C2)c1=O", "stereo": "centres unmarked", "A": 1.836, "B": 5.873}
{"compound": "O=C1CCC2(CCCN(C(=O)Cc3ccccn3)C2)N1", "stereo": "centres unmarked", "A": -2.094, "B": 11.96}
{"compound": "Cc1nc(CN2CCC(N(C)Cc3noc(C4CC4)n3)C2)oc1C", "stereo": "centres unmarked", "A": -19.17, "B": -25.34}
{"compound": "O=S(=O)(c1cc(F)ccc1F)N1CCCC1c1ccncc1", "stereo": "centres unmarked", "A": "-18.17 & -4.488", "B": -18.8}
{"compound": "CC(C)(C)CN1CCN(CC2CC2)C(CCO)C1", "stereo": "centres unmarked", "A": 8.354, "B": -2.139}
{"compound": "Cc1cccc(CNc2ccc(C(=O)N3CCC(CO)CC3)cc2)c1", "A": 19.38, "B": 17}
{"compound": "CCn1c(Cn2cncn2)nnc1C1CCN(CCN)CC1", "A": -23.65, "B": -21.53}
{"compound": "CN(CC1(O)CCN(c2ccnc3ccncc23)CC1)C(=O)CCN", "A": "5.934 & 0.7297", "B": -10.67}
{"compound": "O=C(CCCc1ccccn1)Nc1cccc(N2CCCNC2=O)c1", "A": 0.6204, "B": "5.295 & 0.3053"}
{"compound": "Cc1nc2ccccc2n1Cc1cc(C(=O)N(C)C2CCOCC2)no1", "A": -26.32, "B": -29.24}
{"compound": "CCn1nc(C)c2nc(C(C)C)nc(NCc3ccccn3)c21", "A": -5.655, "B": 40.13}

3 of the entries, repeated:

* CCNC(=O)N(C)CCCc1n[nH]c(N)c1C#N | A: -3.448%; B: 20.11%
* Cc1nc2ccccc2n1Cc1cc(C(=O)N(C)C2CCOCC2)no1 | A: -26.32%; B: -29.24%
* Cc1ncc(C(=O)N2C[C@H](CO)C[C@H](CN3CCOCC3)C2)c(=O)[nH]1 | A: -5.704%; B: 4.235% & 14.76%